Laboratory results published in PMC10229537.
These are yes or no findings as the source states them, for the method shown. Binding seen in cells or lysates may run through a third protein. A yes stands for co-enrichment or nearness to the bait. Other partners may have been found.

Sequences of proteins named here, by UniProt entry; tags and fusion partners are left off.
UniProt Q5D869: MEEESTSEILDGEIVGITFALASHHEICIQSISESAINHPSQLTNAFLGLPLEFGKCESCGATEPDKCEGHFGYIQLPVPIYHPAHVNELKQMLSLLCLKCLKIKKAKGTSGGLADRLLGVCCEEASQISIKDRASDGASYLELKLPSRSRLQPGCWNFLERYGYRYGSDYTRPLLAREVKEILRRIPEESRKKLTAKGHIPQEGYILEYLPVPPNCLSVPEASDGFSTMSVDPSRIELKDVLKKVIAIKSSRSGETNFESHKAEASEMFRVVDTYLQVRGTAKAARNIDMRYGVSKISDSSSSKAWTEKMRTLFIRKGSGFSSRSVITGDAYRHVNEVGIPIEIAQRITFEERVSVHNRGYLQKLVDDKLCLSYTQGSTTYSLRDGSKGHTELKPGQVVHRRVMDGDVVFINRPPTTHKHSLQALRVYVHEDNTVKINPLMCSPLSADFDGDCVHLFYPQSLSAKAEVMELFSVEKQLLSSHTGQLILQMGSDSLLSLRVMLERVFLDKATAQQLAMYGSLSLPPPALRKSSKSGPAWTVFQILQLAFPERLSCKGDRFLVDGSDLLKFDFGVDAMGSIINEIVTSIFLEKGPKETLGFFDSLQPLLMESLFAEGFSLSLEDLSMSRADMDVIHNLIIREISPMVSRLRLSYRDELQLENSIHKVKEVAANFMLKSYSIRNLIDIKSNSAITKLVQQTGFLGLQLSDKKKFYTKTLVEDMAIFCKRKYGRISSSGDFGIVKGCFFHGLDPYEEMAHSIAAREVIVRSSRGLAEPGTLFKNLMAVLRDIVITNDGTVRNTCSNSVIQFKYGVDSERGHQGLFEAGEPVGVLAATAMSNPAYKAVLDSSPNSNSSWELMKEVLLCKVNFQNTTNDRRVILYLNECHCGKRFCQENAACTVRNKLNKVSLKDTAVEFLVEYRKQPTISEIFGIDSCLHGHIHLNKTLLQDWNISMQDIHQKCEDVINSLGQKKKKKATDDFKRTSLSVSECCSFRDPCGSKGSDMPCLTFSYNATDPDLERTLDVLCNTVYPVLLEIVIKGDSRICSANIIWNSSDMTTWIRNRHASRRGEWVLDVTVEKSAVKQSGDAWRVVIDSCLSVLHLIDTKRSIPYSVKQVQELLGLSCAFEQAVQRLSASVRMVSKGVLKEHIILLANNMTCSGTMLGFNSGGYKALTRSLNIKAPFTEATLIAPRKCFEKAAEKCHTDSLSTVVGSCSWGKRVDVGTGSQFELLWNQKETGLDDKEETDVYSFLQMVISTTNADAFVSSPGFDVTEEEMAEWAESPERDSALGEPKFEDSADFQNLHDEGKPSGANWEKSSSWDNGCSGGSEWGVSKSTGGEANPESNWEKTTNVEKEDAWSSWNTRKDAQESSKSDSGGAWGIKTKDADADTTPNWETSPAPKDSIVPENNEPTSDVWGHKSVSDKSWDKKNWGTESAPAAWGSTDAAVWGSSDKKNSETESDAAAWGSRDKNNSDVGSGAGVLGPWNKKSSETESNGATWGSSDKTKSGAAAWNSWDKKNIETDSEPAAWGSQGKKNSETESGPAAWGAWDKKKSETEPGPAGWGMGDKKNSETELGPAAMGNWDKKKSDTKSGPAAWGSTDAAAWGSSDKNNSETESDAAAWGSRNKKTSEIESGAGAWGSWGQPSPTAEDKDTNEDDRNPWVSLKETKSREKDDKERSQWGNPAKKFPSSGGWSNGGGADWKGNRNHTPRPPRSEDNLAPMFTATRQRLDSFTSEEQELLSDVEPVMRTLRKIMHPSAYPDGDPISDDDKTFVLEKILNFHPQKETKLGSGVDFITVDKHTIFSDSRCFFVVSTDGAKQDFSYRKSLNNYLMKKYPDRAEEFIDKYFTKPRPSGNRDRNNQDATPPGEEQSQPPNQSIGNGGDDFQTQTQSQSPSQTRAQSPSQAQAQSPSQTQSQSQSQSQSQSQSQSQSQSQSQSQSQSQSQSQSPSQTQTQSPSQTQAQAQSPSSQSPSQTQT

Target: NRPE1, the largest subunit of Pol V, 3xFLAG-10xHis-tagged (Arabidopsis thaliana) (UniProt Q5D869)
Experiment: affinity purification with mass spectrometry; 3xFLAG-10xHis-NRPE1 from T87 cell lysate on anti-FLAG resin, eluted with FLAG peptide, Capto Q, Superose 6; LC-MS/MS of the purified complex, performed once

Row | binding | Binder
1 | binds | NRPE7 (protein, UniProt A6QRA1 1-178) MFLKVQLPWNVMIPAENMDAKGLMLKRAILVELLEAFASKKATKELGYYVAVTTLDKIGEGKIREHTGEVLFPVMFSGMTFKIFKGEIIHGVVHKVLKHGVFMRCGPIENVYLSYTKMPDYKYIPGENPIFMNEKTSRIQVETTVRVVVIGIKWMEVEREFQALASLEGDYLGPLSEE
2 | binds | NRPE5c (protein, UniProt Q9M1H8 1-233) MEETMAEEGCCENVESTFDDGTNCISKTEDTGGIESKRFYLARTTAFEMLRDRGYEVNEAELSLTLSEFRSVFGEKPELERLRICVPLRSDPKKKILVVFMGTEPITVKSVRALHIQISNNVGLHAMILVLQSKMNHFAQKALTTFPFTVETFPIEDLLVNITKHIQQPKIEILNKEEKEQLLRKHALEDKQLPYLQEKDSFVRYYGLKKKQVVKITYSKEPVGDFVTYRCII
3 | binds | NRPE5a (protein, UniProt Q9M1J2 1-222) MEVKGKETASVLCLSKYVDLSSEESHRYYLARRNGLQMLRDRGYEVSDEDINLSLHDFRTVYGERPDVDRLRISALHRSDSTKKVKIVFFGTSMVKVNAIRSVVADILSQETITGLILVLQNHVTNQALKAIELFSFKVEIFQITDLLVNITKHSLKPQHQVLNDEEKTTLLKKFSIEEKQLPRISKKDAIVRYYGLEKGQVVKVNYRGELTESHVAFRCVW
